In PMC4129439 (eLife, 2014):

System: serum SAA
Assay: LC-MS/MS of retinoids in SAA-enriched serum fraction after S. typhimurium infection
Design: species or system mouse
Settings: 24 hr after intraperitoneal S. typhimurium

SMILES	detection in the SAA-enriched serum fraction (wild-type mice)	detection in the equivalent serum fraction (Saa1/2−/− mice)
CC1=C(/C=C/C(C)=C/C=C/C(C)=C/C(=O)O)C(C)(C)CCC1 [retinoic acid]	not detected	
CC1=C(/C=C/C(C)=C/C=C/C(C)=C/CO)C(C)(C)CCC1 [retinol]		not detected
